Measured values reported in US20260263628A1, “AN ORAL LIQUID COMPOSITION OF VINORELBINE” (INSTITUT GUSTAVE ROUSSY, priority 2022, published 2026).
At least one structure is not confirmed: it was looked up by name or label, or the drawing left a doubt.

Test: Isothermal titration calorimetry of CD/vinorelbine systems (titration and competition with SGM)
Type: physicochemical
Conditions: vinorelbine-CD
Procedure: In the first instance, 12 CDs and CD derivatives supplied by Captisol® (Kansas, USA), SIGMA® (St Louis, Missouri, USA) and MSD® (New Jersey, USA) and authorized by the FDA or the European Medicines Agency (EMA) were tested (U.S Food and Drug Administration C for DE and. Food Additive Status List. FDA 2022. U.S Food and Drug Administration C for DE and. Select Committee on GRAS Substances 2022. Committee for Human Medicinal Products. Cyclodextrins used as excipients. EMA 2017:16). These were alpha-CD, beta-[…] (methyl-beta-CD, low substitution degree), RAMEB (methyl-beta-CD, higher substitution degree), DIMEB (di-O-methyl-beta-[…] (tri-O-methyl-beta-CD), HP-beta-CD (Hydroxypropyl-beta-CD), SBE-beta-CD (Sulfobutylether-beta-CD), gamma-CD, HP-gamma-CD (Hydroxypropyl-gamma-CD), SBE-gamma-CD (Sulfobutylether-gamma-CD), and sugammadex (SGM). Vinorelbine ditartrate and 50 mM CD solutions were prepared in phosphate buffer pH 7.0. […] The resulting heat flux was recorded as a function of time. […] The peak area after each injection was obtained by integration of the resulting signal and was expressed as the heat effect per injection. The binding constant (KB), inclusion enthalpy (ΔbH°), and heat capacity (ΔbCp®) were determined using a program developed by Bertaut and Landy involving a global analysis of all binding isotherms obtained for a given system (Bertaut et al. Beilstein J Org Chem 2014:12). […]

In the case of O=C(O)CCSC[C@H]1O[C@@H]2O[C@H]3[C@H](O)[C@@H](O)[C@@H](O[C@H]4[C@H](O)[C@@H](O)[C@@H](O[C@H]5[C@H](O)[C@@H](O)[C@@H](O[C@H]6[C@H](O)[C@@H](O)[C@@H](O[C@H]7[C@H](O)[C@@H](O)[C@@H](O[C@H]8[C@H](O)[C@@H](O)[C@@H](O[C@H]9[C@H](O)[C@@H](O)[C@@H](O[C@H]1[C@H](O)[C@H]2O)O[C@@H]9CSCCC(=O)O)O[C@@H]8CSCCC(=O)O)O[C@@H]7CSCCC(=O)O)O[C@@H]6CSCCC(=O)O)O[C@@H]5CSCCC(=O)O)O[C@@H]4CSCCC(=O)O)O[C@@H]3CSCCC(=O)O [SGM, sugammadex], the Stoichiometry is reported as 1:1.
